# Results published in PubChem BioAssay AID1347076 (National Center for Advancing Translational Sciences (NCATS), 2019).
# Screen size: about 400,000 compounds; about 13,000 (3.2%) were called active. This list was built around the results that the source calls inconclusive (neither active nor inactive); the mix of calls is not that of the screen. The call rests on the fitted dose curve; in most records, active means well fitted cell-killing curve with a large enough effect; inconclusive means small, poorly fitted or top-dose-only effect, or effect the other way; inactive means flat fitted curve, though single readings scatter. Potencies of inconclusive entries are doubtful fits and often do not repeat.
# Test: qHTS assay for MDR1-selective chemotherapeutics: Primary screen using the drug-selected MDR subline cells KB-V1; further: nearly all actives have a fitted effect of over 60% in size
# Conditions: KB-V1 MDR cells viability, CellTiter-Glo, 72 h; activity change, negative = cytotoxicity: at 46.1 µM (top of the series)
# Procedure, shortened: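 Following 72 h at 37 degrees C with compound, KB-V1 cell viability was read by CellTiter-Glo luminescence, medium being phenol-red-free DMEM plus 10% FBS; concentration-response parameters came from normalized, curve-fitted qHTS data.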
# On the % scale 0 is the no-effect control and ±100 the full control effect; potency means the concentration at half of the fitted maximal effect.
SMILES,"activity change, negative = cytotoxicity",Potency
Cc1ccccc1Nc1ncnc(N)n1,inactive: -8.64%,
O=C(O)CC(Cc1ccccc1)c1ccc2c(c1)OCO2 (stereo unspecified),,"inconclusive: 18.4 µM [cytotoxic, single point]"
O=c1cc[nH]c2cc(Cl)ccc12,,"inconclusive: 29.1 µM [rising, single point]"
O=C(CN(Cc1ccc(F)cc1)C(=O)c1ccco1)NCc1ccc(F)cc1,,"inconclusive: 10.3 µM [cytotoxic, partial curve]"
O=C(c1ccc(SCc2cccc(Br)c2)c([N+](=O)[O-])c1)N1CCN(c2ccccn2)CC1,,"inconclusive: 20.6 µM [cytotoxic, single point]"
C[C@]12c3[nH]c4cc(-c5ccco5)ccc4c3CCN1C(=O)[C@@H](CC(=O)NCCc1ccccn1)C[C@@H]2C(=O)N1CCCCC1,inactive: -1.57%,
S=C(NCc1ccccc1)N1CCn2cccc2C1c1cccnc1 (stereo unspecified),,"inconclusive: 18.4 µM [cytotoxic, partial curve, poor fit]"
CCC1CN(C(=O)N2CCC(C(=O)NCc3ccco3)CC2)c2cc(C)ccc2O1 (stereo unspecified),inactive: -30.2%,
CCN1CCc2c(sc(NC(=O)c3ccc(S(=O)(=O)N4CCCC4)cc3)c2C(=O)NC)C1,,"inconclusive: 9.2 µM [cytotoxic, partial curve, poor fit]"
Cc1cc(=O)oc2c3c(cc(OCC(=O)NCCC(=O)O)c12)OC(C)(C)CC3,,"inconclusive: 1.64 µM [rising, partial curve]"
CC(C)c1ccc2occ(CC(=O)Nc3cccc(C(F)(F)F)c3)c2c1,,"inconclusive: 29.1 µM [cytotoxic, single point]"
CC(=O)c1cn(Cc2ccccc2)c(=O)[nH]c1=O,inactive: 4.44%,
COc1cc(/C=N/NC(=O)Cc2ccccc2)ccc1Oc1ccc([N+](=O)[O-])cc1[N+](=O)[O-],,"inconclusive: 25.9 µM [cytotoxic, single point]"
CCCN(Cc1cc2cc(C)ccc2[nH]c1=O)S(C)(=O)=O,inactive: -0.567%,
COc1ccc2nc(SCC(=O)NC3CCCCC3)[nH]c2c1,inactive: -2.58%,
Cc1ccc(CSCCNS(=O)(=O)c2ccccc2)cc1,,"inconclusive: 18.4 µM [cytotoxic, partial curve, poor fit]"
COc1ccc(C(=O)NC2CCN(C(=S)Nc3cccc(C)c3)CC2)cc1,,"inconclusive: 20.6 µM [cytotoxic, partial curve, poor fit]"
C[C@H]1CN([C@@H](C)CO)C(=O)c2cccc(NS(=O)(=O)c3ccc(Cl)cc3)c2O[C@@H]1CN(C)CC1CCCCC1,,"inconclusive: 18.4 µM [rising, single point]"
Cc1cc(C)c2c(CC(=O)Nc3c(C(=O)c4ccc(F)cc4)oc4ccccc34)coc2c1,inactive: 10.7%,
COCCCNc1nc2c(c(=O)n(C)c(=O)n2C)n1Cc1ccccc1,inactive: 16.3%,
COc1ccc(CCNS(=O)(=O)c2cccc(F)c2)cc1OC,,"inconclusive: 18.4 µM [cytotoxic, single point]"
CCS(=O)(=O)N1CCN(c2cc3c(cc2[N+](=O)[O-])n(C)c(=O)n3C)CC1,,"inconclusive: 29.1 µM [cytotoxic, single point]"

SMILES,"activity change, negative = cytotoxicity",Potency
C/C(Cl)=C\Cn1c(NCCc2ccccc2)nc2c1c(=O)n(C)c(=O)n2C,,"inconclusive: 2.59 µM [cytotoxic, partial curve, poor fit]"
CN(c1ccccc1)c1ccc(/C=C(\CCC(=O)O)c2nc3ccccc3s2)cc1[N+](=O)[O-],,"inconclusive: 18.4 µM [cytotoxic, partial curve, poor fit]"
N#Cc1ccc(-c2ccc(OCC(O)Cn3nnc4ccccc43)cc2)cc1 (stereo unspecified),,"inconclusive: 29.1 µM [cytotoxic, single point]"
CC(=O)Nc1sc(C)c(C)c1C(=O)OCC(=O)Nc1cc(S(=O)(=O)N2CCCCC2)ccc1Cl,,"inconclusive: 20.6 µM [cytotoxic, single point]"
COCCNC(=O)CCSc1nc(-c2ccc3c(c2)OCO3)cc(C(F)(F)F)n1,,"inconclusive: 5.8 µM [cytotoxic, partial curve]"
COC(=O)C1=C(C)NC2=C(C(=O)CCC2)C1c1cn(Cc2ccc(Cl)cc2Cl)nc1-c1ccccc1 (stereo unspecified),,"inconclusive: 29.1 µM [cytotoxic, single point]"
O=C(NCc1ccco1)C1Cc2c(-c3ccccc3Oc3ccccc3)ccnc2O1 (stereo unspecified),,"inconclusive: 25.9 µM [cytotoxic, single point]"
O=C(Nc1ccc2c(c1)CCC2)c1cnn2c1NC(=C1CC1)C=C2C(F)F,inactive: 0.765%,
COc1cc(/C=C/C(=O)N2CCc3ccccc3C2)cc(OC)c1OC,,"inconclusive: 2.59 µM [cytotoxic, partial curve, poor fit]"
Cc1ccc(C(=O)O/N=C/c2c(Cl)n(C)c3ccccc23)cc1,inactive: -5.73%,
COc1ccc(OC)c(C(=O)COC(=O)c2[nH]c(C)c(C(C)=O)c2C)c1,,"inconclusive: 7.31 µM [cytotoxic, partial curve]"
COc1ccc(/C=N/NC(=O)Cn2cnc3ccccc3c2=O)cc1,,active: 3.26 µM
O=C(CCN1C(=O)/C(=C/c2ccc(F)cc2)SC1=S)NC1C=CS(=O)(=O)C1 (stereo unspecified),,"inconclusive: 0.731 µM [rising, full curve, poor fit]"
Cn1c(=O)c2ccccc2n(Cc2ccccc2F)c1=O,,"inconclusive: 29.1 µM [cytotoxic, single point]"
COc1c(OC(C)=O)ccc(/C=C/c2ccc3cccc(OC)c3n2)c1[N+](=O)[O-],,"inconclusive: 16.4 µM [cytotoxic, single point]"
CCCN(CC(=O)Nc1ccc(Cl)cc1Cl)C(=O)CC(NC(C)=O)c1ccccc1 (stereo unspecified),inactive: -14.1%,
COc1cccc(CN(C)CC(=O)Nc2cccc3ccccc23)c1,,"inconclusive: 16.4 µM [cytotoxic, single point]"
CCC[n+]1c(C)sc2c3c(ccc21)CCCC3,inactive: -9.12%,
Cc1nnn(-c2nonc2N)c1C(=O)N/N=C/c1ccccc1O,,"inconclusive: 3.66 µM [cytotoxic, full curve]"
CC1CCCN(S(=O)(=O)c2ccc(C(=O)Nc3nnc(-c4ccco4)o3)cc2)C1 (stereo unspecified),,active: 7.31 µM
CC(C)(C)S(=O)N1Cc2cc(C(=O)NCc3ccc(Oc4ccccc4)cc3)nc(-c3cccc(-c4cc5ccccc5o4)c3)c2[C@H]1CCO (stereo partly specified),inactive: -1.64%,
COc1cccc(C(CNc2ccc(S(=O)(=O)N3CCN(C)CC3)cc2[N+](=O)[O-])N(C)C)c1 (stereo unspecified),,"inconclusive: 6.51 µM [cytotoxic, partial curve]"

SMILES,"activity change, negative = cytotoxicity",Potency
Cc1ccc(S(=O)(=O)NCC(=O)OCc2ccccc2)cc1,inactive: 0%,
O=C(O)c1ccc(Cl)c(S(=O)(=O)N(Cc2ccccc2)c2ccccc2Cl)c1,,"inconclusive: 29.1 µM [cytotoxic, single point]"
CN(C)c1ccc(CN(Cc2ccco2)C(=O)c2ccco2)cc1,,"inconclusive: 0.0082 µM [cytotoxic, full curve, poor fit]"
CCCNC(=O)Nc1nc(C(N)c2ccc(OC)cc2)cs1 (stereo unspecified),inactive: 5.62%,
O=C(O)CCN1C(=O)CC(N2C(=O)/C(=C/c3ccc(Cl)cc3)SC2=S)C1=O (stereo unspecified),inactive: -22%,
Cc1ccc(NS(=O)(=O)c2ccc3c(c2)NC(=O)CCS3)cc1F,,"inconclusive: 20.6 µM [cytotoxic, single point]"
O=C1/C(=C/c2ccc(Cl)cc2)SC(=S)N1CCC(=O)N1CCCCC1CCO (stereo unspecified),inactive: -17.1%,
O=S(=O)(O)c1cccnc1SCc1ccccc1,inactive: -11.3%,
CC1(C)CC(N2CCN(C(c3ccccc3)c3ccccc3)CC2)=CC(=[N+]2CCCCC2)C1,,"inconclusive: 20.6 µM [cytotoxic, single point]"
Cc1cccc(N2CCN(C(=O)CCC(=O)NNc3nc4ccccc4c4nc(C)nn34)CC2C)c1 (stereo unspecified),inactive: -1.89%,
O=C1c2cccc3cccc(c23)C(=O)C1(O)O,inactive: -12.6%,
CCOC(=O)Cn1c(-c2cccnc2Cl)nc2cc(Cl)c(Cl)cc21,,active: 20.6 µM
COc1ccc(OC)c(C(=O)N2CCC(C(=O)c3ccc(F)cc3)CC2)c1,,"inconclusive: 10.3 µM [cytotoxic, partial curve]"
CN1C[C@@H]2[C@@H]3C(=O)N(C)C(=O)[C@@H]3[C@](C)(C1=O)N2C(=O)c1ccccc1,,"inconclusive: 29.1 µM [rising, partial curve, poor fit]"
CS(=O)(=O)N(Cc1ccc(C(=O)N2CCc3ccccc3C2)cc1)c1ccccc1,,"inconclusive: 20.6 µM [cytotoxic, partial curve, poor fit]"
CCc1n(CC(O)COCC2CC=CCC2)c2ccccc2[n+]1C (stereo unspecified),,"inconclusive: 18.4 µM [rising, partial curve, poor fit]"
Cc1nc(C(=O)NCC(=O)c2ccc(Cl)cc2)c(C(F)(F)F)o1,,"inconclusive: 18.4 µM [rising, single point]"
CCOC(=O)c1cnc2c(C)c(C)ccc2c1NCCN1CCOCC1,,"inconclusive: 2.59 µM [cytotoxic, full curve, poor fit]"
O=C(Cn1cnc2ccccc2c1=O)N1CCN(Cc2ccccc2)CC1,,active: 23.1 µM
O=C(O)c1ccc(C=C(c2nc3ccccc3s2)c2nc3ccccc3s2)cc1,,"inconclusive: 20.6 µM [cytotoxic, single point]"
Cc1c(C(=O)NCC2CCCO2)oc2ccc(S(=O)(=O)N3CC(C)CC(C)C3)cc12 (stereo unspecified),,"inconclusive: 18.4 µM [cytotoxic, single point]"
Cc1ccc(Cn2c(=O)c3ccccc3n3c(CCC(=O)NCCN4CCOCC4)nnc23)cc1,,"inconclusive: 23.1 µM [rising, single point]"

# In the list so far, four contain an aryl thioether with sulfur outside any ring:
SMILES,"activity change, negative = cytotoxicity",Potency
O=C(c1ccc(SCc2cccc(Br)c2)c([N+](=O)[O-])c1)N1CCN(c2ccccn2)CC1,,"inconclusive: 20.6 µM [cytotoxic, single point]"
COc1ccc2nc(SCC(=O)NC3CCCCC3)[nH]c2c1,inactive: -2.58%,
COCCNC(=O)CCSc1nc(-c2ccc3c(c2)OCO3)cc(C(F)(F)F)n1,,"inconclusive: 5.8 µM [cytotoxic, partial curve]"
O=S(=O)(O)c1cccnc1SCc1ccccc1,inactive: -11.3%,
